Data as given in article PMC3641059.
These are yes or no findings as the source states them, for the method shown. Some results given as binding are weak or reduced against the parent protein; the word gives no strength. Each block holds one binder with its values, some of them ahead of it.

Chains of the proteins cited; added tags and fusions are not shown.
UniProt P19658: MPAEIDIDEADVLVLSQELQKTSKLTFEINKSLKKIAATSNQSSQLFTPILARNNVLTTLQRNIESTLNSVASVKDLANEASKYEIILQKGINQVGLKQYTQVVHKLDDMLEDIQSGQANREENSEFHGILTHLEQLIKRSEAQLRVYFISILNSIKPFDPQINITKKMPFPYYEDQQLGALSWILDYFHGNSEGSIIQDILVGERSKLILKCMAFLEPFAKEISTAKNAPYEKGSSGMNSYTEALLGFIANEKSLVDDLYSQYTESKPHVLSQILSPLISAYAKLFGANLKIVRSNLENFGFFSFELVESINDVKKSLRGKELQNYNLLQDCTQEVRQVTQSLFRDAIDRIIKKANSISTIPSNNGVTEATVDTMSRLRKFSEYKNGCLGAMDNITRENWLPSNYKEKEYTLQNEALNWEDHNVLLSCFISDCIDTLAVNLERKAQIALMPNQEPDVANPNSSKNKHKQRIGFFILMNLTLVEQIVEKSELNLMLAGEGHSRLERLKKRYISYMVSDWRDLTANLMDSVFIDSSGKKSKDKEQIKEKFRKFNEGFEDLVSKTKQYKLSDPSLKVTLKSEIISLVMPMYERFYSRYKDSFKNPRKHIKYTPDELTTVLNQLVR

Columns and labels:
Ste11 (S. cerevisiae) [1] = target: T1, Ste11 (S. cerevisiae) (UniProt P23561); test: PICT (co-translocation of GFP-tagged prey with FRB-tagged bait to an FKBP-tagged anchor, live-cell fluorescence imaging); living S. cerevisiae (tor1-1, FPR1 deleted), anchor Pil1-RFP-FKBP, bait-FRB, prey-GFP; cells grown in SD medium at 25°C, vehicle (DMSO) or 10 µM rapamycin, imaged after 15 min; scored positive when >90% of membrane patches in the GFP channel colocalised with the anchor; also done in ste5Δ and ste50Δ cells
T1 sequence: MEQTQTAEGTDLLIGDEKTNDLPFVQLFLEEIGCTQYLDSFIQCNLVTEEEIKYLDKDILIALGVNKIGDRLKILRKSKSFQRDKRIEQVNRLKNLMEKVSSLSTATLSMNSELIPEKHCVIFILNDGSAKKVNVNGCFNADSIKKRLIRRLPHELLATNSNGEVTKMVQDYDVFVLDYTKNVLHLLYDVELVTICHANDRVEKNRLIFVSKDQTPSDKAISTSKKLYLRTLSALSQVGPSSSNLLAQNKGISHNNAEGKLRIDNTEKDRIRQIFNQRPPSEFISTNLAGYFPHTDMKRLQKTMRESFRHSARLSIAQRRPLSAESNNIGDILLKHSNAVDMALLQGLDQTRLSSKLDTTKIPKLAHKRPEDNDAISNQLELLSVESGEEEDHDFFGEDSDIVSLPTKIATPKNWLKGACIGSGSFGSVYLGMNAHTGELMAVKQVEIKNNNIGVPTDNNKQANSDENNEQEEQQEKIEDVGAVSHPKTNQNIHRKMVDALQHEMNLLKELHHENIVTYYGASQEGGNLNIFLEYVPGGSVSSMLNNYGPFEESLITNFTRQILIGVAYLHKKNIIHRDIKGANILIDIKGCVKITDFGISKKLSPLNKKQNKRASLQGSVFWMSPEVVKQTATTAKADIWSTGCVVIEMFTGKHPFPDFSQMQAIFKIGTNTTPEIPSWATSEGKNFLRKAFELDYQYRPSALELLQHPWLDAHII

Ste11 (S. cerevisiae) [2] = target: T1, Ste11 (S. cerevisiae); test: PICT-FRAP (fluorescence recovery after photobleaching of GFP-tagged protein recruited to the anchor sites); living S. cerevisiae, anchor Pil1-RFP-FKBP, rapamycin; 488 nm laser bleaching of an anchoring platform; exchange of the GFP-tagged protein followed
[3] = target: Exo70-FRB (S. cerevisiae) (UniProt P19658); test: automated PICT screen (co-translocation, automated live-cell imaging); living S. cerevisiae, anchor Pil1-RFP-FKBP, bait Exo70-FRB, 227 C-terminally GFP-tagged prey strains in 96 well plates; vehicle (DMSO) or 10 µM rapamycin for 15-60 min; nine fields of view; ratio of the area of colocalisation with and without rapamycin, one-tailed t-test (p<0.02), and visual inspection

binding (Ste11 (S. cerevisiae) [1]): binds
binding (Ste11 (S. cerevisiae) [2]): binds
B1: Ste50 (protein, UniProt P25344 1-346)
chain: MEDGKQAINEGSNDASPDLDVNGTILMNNEDFSQWSVDDVITWCISTLEVEETDPLCQRLRENDIVGDLLPELCLQDCQDLCDGDLNKAIKFKILINKMRDSKLEWKDDKTQEDMITVLKNLYTTTSAKLQEFQSQYTRLRMDVLDVMKTSSSSSPINTHGVSTTVPSSNNTIIPSSDGVSLSQTDYFDTVHNRQSPSRRESPVTVFRQPSLSHSKSLHKDSKNKVPQISTNQSHPSAVSTANTPGPSPNEALKQLRASKEDSCERILKNAMKRHNLADQDWRQYVLVICYGDQERLLELNEKPVIIFKNLKQQGLHPAIMLRRRGDFEEVAMMNGSDNVTPGGRL

binding [3]: no binding
B2: YLL010C (protein, UniProt Q07800 1-427)
chain: MGFISSILCCSSETTQSNSNSAYRQQQSSSLNKNRSVKHSNTKSRTRGVHQTNSPPSKTNSAATFSSTERSTGKSGISTNDNEKKKPSSPTAAVTATTTNNMTKVEKRISKDDLYEEKYEVDEDEEIDDEDNRRSRGIVQEKGDAVKDTSRQKKQQQQQQQQSQPQPQPQSQSQSQSQSQSQQRGPTVQVSSDHLIQDMNLSRVSSSSQASETSNDADDEDDEDEEYIDLTLLQQGQYHAPGYNTLLPPQDESTKGKKCLILDLDETLVHSSFKYLRSADFVLSVEIDDQVHNVYVIKRPGVEEFLERVGKLFEVVVFTASVSRYGDPLLDILDTDKVIHHRLFREACYNYEGNYIKNLSQIGRPLSDIIILDNSPASYIFHPQHAIPISSWFSDTHDNELLDIIPLLEDLSVKTSLDVGKILDVTI

binding [3]: no binding
B3: YOR008C (protein, UniProt P54867 22-378)
chain: YEYVNCFSSLPSDFSKADSYNWQSSSHCNSECSAKGASYFALYNHSECYCGDTNPSGSESTSSSCNTYCFGYSSEMCGGEDAYSVYQLDSDTNSNSISSSDSSTESTSASSSTTSSTTSSTTSTTSSTTSSTTSSMASSSTVQNSPESTQAAASISTSQSSSTVTSESSLTSDTLATSSTSSQSQDATSIIYSTTFHTEGGSTIFVTNTITASAQNSGSATGTAGSDSTSGSKTHKKKANVGAIVGGVVGGVVGAVAIALCILLIVRHINMKREQDRMEKEYQEAIKPVEYPDKLYASSFSSNHGPSSGSFEEEHTKGQTDINPFDDSRRISNGTFINGGPGGKNNVLTVVNPDEAD

binding (Ste11 (S. cerevisiae) [1]): binds
B4: Ste5 (protein, UniProt P32917 1-917)
chain: MMETPTDNIVSPFHNFGSSTQYSGTLSRTPNQIIELEKPSTLSPLSRGKKWTEKLARFQRSSAKKKRFSPSPISSSTFSFSPKSRVTSSNSSGNEDGNLMNTPSTVSTDYLPQHPHRTSSLPRPNSNLFHASNSNLSRANEPPRAENLSDNIPPKVAPFGYPIQRTSIKKSFLNASCTLCDEPISNRRKGEKIIELACGHLSHQECLIISFGTTSKADVRALFPFCTKCKKDTNKAVQCIPENDELKDILISDFLIHKIPDSELSITPQSRFPPYSPLLPPFGLSYTPVERQTIYSQAPSLNPNLILAAPPKERNQIPQKKSNYTFLHSPLGHRRIPSGANSILADTSVALSANDSISAVSNSVRAKDDETKTTLPLLRSYFIQILLNNFQEELQDWRIDGDYGLLRLVDKLMISKDGQRYIQCWCFLFEDAFVIAEVDNDVDVLEIRLKNLEVFTPIANLRMTTLEASVLKCTLNKQHCADLSDLYIVQNINSDESTTVQKWISGILNQDFVFNEDNITSTLPILPIIKNFSKDVGNGRHETSTFLGLINPNKVVEVGNVHDNDTVIIRRGFTLNSGECSRQSTVDSIQSVLTTISSILSLKREKPDNLAIILQIDFTKLKEEDSLIVVYNSLKALTIKFARLQFCFVDRNNYVLDYGSVLHKIDSLDSISNLKSKSSSTQFSPIWLKNTLYPENIHEHLGIVAVSNSNMEAKKSILFQDYRCFTSFGRRRPNELKIKVGYLNVDYSDKIDELVEASSWTFVLETLCYSFGLSFDEHDDDDEEDNDDSTDNELDNSSGSLSDAESTTTIHIDSPFDNENATANMVNDRNLLTEGEHSNIENLETVASSVQPALIPNIRFSLHSEEEGTNENENENDMPVLLLSDMDKGIDGITRRSSFSSLIESGNNNCPLHMDYI

binding [3]: no binding
B5: YKL079W (protein, UniProt P32364 1-656)
chain: MHWNIISKEQSSSSVSLPTLDSSEPCHIEVILRAIPEKGLQNNESTFKIDPYENTVLFRTNNPLHETTKETHSTFQFDKVFDANATQEDVQKFLVHPIINDVLNGYNGTVITYGPSFSGKSYSLIGSKESEGILPNICKTLFDTLEKNEETKGDSFSVSVLAFEIYMEKTYDLLVPLPERKPLKLHRSSSKMDLEIKDICPAHVGSYEDLRSYIQAVQNVGNRMACGDKTERSRSHLVFQLHVEQRNRKDDILKNSSLYLVDLHGAEKFDKRTESTLSQDALKKLNQSIEALKNTVRSLSMKERDSAYSAKGSHSSAYRESQLTEVLKDSLGGNRKTKVILTCFLSNVPTTLSTLEFGDSIRQINNKVTDNTTGLNLKKKMDLFIQDMKIKDDNYVAQINILKAEIDSLKSLHNKSLPEDDEKKMLENTKKENIKLKLQLDSITQLLSSSTNEDPNNRIDEEVSEILTKRCEQIAQLELSFDRQMNSNSKLQQELEYKKSKEEALESMNVRLLEQIQLQEREIQELLTTNAILKGELETHTKLTETRSERIKSLESSVKELSLNKSAIPSPRRGSMSSSSGNTMLHIEEGSEISNSPWSANTSSKPLVWGARKVSSSSIATTGSQESFVARPFKKGLNLHSIKVTSSTPKSPSSGS
